# Laboratory results from paper PMC6353868.
# Amino acid sequences for entries named in this document (tags omitted).
# UniProt Q62318: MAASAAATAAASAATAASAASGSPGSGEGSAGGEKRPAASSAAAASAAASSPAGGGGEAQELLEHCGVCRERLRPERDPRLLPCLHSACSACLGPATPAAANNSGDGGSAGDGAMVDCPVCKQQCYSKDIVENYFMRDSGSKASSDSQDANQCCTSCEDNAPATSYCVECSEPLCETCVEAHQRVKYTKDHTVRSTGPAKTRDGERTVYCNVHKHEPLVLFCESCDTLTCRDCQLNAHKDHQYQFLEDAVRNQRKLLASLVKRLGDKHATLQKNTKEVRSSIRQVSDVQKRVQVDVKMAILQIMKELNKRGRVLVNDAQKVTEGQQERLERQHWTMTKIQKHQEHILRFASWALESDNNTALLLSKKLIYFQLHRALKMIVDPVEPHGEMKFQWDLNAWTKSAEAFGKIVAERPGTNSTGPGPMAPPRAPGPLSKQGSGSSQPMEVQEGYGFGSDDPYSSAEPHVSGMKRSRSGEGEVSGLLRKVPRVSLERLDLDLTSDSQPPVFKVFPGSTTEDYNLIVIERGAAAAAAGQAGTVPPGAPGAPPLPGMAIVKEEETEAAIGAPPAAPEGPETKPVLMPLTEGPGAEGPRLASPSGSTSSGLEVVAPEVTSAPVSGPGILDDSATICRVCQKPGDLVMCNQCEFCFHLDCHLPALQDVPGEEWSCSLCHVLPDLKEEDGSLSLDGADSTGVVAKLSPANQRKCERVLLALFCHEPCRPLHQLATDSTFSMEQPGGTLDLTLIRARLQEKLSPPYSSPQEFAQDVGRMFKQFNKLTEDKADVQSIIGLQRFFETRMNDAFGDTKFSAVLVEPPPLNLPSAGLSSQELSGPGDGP
# UniProt P13864: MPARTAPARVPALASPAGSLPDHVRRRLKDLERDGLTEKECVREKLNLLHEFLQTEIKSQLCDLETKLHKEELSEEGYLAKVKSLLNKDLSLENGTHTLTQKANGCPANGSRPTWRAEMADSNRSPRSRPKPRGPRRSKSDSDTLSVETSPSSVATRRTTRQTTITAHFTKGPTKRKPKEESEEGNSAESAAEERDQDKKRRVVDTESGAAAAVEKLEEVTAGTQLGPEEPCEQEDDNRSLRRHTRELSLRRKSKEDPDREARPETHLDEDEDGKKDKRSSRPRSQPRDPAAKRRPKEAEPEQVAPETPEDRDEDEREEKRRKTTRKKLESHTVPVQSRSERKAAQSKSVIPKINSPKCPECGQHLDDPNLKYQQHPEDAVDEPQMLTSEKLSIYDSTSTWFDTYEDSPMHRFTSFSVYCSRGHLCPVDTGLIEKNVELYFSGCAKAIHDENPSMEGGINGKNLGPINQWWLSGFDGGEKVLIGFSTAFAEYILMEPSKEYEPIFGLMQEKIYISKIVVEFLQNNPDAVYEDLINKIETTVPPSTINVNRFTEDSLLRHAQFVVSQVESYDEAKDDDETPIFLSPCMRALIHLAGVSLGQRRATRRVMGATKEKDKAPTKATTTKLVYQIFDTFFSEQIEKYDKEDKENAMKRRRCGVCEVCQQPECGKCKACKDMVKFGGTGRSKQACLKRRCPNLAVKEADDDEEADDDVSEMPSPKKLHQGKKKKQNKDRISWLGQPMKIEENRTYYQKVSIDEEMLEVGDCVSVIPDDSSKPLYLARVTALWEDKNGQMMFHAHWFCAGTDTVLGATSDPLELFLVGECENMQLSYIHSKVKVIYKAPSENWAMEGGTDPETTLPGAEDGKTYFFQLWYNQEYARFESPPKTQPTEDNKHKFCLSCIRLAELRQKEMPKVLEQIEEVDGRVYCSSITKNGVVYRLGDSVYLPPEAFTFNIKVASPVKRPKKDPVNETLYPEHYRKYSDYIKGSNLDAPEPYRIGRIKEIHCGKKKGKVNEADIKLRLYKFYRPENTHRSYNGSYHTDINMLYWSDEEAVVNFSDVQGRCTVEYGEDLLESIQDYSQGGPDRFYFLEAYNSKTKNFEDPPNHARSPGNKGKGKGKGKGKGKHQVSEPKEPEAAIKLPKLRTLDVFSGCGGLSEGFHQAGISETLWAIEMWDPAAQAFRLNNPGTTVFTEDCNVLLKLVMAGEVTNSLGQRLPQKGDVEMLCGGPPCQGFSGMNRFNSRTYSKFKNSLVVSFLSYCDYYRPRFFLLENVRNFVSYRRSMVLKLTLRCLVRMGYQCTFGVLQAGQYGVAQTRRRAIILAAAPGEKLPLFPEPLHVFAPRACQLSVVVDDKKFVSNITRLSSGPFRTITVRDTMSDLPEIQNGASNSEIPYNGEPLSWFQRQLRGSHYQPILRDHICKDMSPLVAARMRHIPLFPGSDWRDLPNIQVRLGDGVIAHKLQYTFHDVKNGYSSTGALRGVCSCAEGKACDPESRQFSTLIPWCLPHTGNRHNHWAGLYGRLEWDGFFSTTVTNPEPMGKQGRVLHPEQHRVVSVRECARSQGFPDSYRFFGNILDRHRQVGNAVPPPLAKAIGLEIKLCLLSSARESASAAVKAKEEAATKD
# UniProt Q02248: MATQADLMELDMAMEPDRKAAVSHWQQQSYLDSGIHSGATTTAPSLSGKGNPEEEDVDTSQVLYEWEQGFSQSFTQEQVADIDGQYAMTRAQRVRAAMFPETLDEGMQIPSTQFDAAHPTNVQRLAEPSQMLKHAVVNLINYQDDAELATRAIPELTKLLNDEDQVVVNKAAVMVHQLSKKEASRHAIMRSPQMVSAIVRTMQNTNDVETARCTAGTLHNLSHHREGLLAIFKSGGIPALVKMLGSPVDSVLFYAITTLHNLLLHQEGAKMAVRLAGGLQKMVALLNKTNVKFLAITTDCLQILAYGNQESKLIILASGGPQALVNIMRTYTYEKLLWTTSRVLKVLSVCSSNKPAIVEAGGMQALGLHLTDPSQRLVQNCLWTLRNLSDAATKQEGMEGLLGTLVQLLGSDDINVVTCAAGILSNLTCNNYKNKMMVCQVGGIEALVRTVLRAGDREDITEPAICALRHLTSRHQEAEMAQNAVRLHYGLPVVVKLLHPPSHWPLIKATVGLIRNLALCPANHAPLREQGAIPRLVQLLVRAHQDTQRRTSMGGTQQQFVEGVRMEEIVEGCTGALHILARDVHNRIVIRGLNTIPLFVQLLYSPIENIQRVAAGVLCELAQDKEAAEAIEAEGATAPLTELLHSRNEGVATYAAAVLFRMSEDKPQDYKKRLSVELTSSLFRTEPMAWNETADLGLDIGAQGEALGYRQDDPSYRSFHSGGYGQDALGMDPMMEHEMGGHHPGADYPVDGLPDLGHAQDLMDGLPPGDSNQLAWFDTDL
# No constants are given. Whether binding was seen depends on the method and setting. In cells and extracts the contact can be indirect. Some entries that bind do so weakly or less than the wild type.
# Assays:
# [1] = target: KAP1 (mouse (endogenous in E14 mESCs)) (UniProt Q62318); experiment: co-IP; nuclear extract (100 µg) of shCtrl-transduced E14 YP-mESCs in CHAPS buffer (50 mM TrisHCl pH 7.5, 150 mM NaCl, 0.15% CHAPS), antibody-coupled Dynabeads (DNMT1, β-catenin or KAP1 antibody, or IgG) overnight at 4 °C, western blot; shβcat-transduced cells as control
# [2] = target: DNA methyltransferase I (DNMT1) (mouse (endogenous in E14 mESCs)) (UniProt P13864); experiment: as above
substance,measurement,setting,value
β-catenin (from UniProt Q02248 1-781),binding,[1],binds
same,binding,[2],binds
